PMC6235831
No constants are given. Whether binding was seen depends on the method and setting. In cells and extracts the contact can be indirect. Some results given as binding are weak or reduced against the parent protein; the word gives no strength.

Chains of the proteins cited; added tags and fusions are not shown. Residues count along the entry.
UniProt Q9R0N7: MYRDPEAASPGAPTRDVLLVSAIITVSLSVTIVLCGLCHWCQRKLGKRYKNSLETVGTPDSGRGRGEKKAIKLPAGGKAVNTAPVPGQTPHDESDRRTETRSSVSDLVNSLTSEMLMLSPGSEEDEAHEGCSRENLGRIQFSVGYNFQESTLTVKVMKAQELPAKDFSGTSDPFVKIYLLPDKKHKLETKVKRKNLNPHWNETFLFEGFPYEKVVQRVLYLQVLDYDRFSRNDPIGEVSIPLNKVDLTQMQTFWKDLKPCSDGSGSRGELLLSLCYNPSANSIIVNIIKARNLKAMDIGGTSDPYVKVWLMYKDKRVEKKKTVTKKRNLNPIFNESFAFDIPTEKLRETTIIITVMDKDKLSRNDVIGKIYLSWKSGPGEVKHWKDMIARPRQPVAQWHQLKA
UniProt P12023, residues 18-770: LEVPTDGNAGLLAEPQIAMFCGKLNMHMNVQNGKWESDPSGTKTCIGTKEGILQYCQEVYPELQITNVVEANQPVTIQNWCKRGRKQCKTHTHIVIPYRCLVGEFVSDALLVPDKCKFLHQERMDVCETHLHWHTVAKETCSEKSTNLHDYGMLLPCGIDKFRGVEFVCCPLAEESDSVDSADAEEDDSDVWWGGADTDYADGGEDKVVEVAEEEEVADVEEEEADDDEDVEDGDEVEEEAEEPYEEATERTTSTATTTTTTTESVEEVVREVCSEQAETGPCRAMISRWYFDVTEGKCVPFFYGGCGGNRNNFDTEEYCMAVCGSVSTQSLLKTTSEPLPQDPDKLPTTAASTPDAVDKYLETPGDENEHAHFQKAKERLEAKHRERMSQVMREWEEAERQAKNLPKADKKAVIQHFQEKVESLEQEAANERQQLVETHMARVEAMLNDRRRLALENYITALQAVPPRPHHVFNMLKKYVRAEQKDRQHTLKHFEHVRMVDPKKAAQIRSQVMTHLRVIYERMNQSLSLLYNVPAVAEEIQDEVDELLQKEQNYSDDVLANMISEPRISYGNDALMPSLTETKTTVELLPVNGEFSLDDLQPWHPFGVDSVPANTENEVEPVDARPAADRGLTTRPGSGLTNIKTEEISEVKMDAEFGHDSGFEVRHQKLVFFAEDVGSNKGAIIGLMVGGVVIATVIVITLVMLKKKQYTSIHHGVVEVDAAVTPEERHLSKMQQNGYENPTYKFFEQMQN
UniProt Q62747: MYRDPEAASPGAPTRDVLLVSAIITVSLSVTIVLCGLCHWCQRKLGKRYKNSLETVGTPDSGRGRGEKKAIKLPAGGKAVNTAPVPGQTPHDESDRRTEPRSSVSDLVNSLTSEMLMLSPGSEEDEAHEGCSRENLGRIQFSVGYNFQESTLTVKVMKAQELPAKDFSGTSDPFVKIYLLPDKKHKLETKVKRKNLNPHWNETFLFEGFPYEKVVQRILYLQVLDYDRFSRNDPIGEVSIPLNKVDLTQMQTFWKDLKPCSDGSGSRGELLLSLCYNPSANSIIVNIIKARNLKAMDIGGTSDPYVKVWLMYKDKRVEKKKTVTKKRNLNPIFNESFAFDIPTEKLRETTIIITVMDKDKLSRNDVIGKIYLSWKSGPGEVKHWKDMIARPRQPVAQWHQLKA
UniProt P08592, residues 18-770: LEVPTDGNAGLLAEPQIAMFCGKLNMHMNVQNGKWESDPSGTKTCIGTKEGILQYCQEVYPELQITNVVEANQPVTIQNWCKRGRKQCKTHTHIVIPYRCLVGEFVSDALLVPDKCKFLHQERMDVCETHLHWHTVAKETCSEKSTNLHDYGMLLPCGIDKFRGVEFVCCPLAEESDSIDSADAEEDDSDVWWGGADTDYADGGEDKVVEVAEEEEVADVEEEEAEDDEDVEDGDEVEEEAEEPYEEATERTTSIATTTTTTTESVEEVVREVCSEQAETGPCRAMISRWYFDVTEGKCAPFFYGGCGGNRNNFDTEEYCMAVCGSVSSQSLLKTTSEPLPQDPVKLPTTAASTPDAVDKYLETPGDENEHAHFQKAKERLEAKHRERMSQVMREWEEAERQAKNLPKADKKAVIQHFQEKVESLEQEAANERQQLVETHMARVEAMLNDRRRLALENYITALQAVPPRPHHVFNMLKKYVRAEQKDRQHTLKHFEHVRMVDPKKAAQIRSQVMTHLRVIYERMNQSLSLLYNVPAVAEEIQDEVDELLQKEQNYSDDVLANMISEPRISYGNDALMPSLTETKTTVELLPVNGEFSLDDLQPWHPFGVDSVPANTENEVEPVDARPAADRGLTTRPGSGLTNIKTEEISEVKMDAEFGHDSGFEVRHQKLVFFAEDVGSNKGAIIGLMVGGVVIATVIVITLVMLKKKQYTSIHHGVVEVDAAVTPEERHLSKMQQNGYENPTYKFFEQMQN

Assays:
[1] = molecular target: synaptotagmin-7 (mouse (endogenous in adult brain synaptosomes)) (UniProt Q9R0N7); experiment: co-IP; synaptosomal fraction from whole brains of adult mice, resuspended in lysis buffer; IP of Syt7 or IP of APP, western blot; control: beads + immuno-precipitating antibody without sample
[2] = molecular target: amyloid precursor protein, full length (mouse (endogenous in adult brain synaptosomes)) (UniProt P12023); experiment: as above
[3] = molecular target: synaptotagmin-7 (not stated (rat neuronal cultures are named for the GSI treatment in p-0014; cultures from mice were also used)) (UniProt Q62747); experiment: co-IP; lysates of cultured cortical neurons (50 mM Hepes pH 7.4, 100 mM NaCl, 10% glycerol, 0.5% DDM), 600-1000 µg lysate; IP with an antibody against Syt7, magnetic beads, western blot with Y188; neurons treated or not with GSI (L685,458) from 10 to 14 DIV and with or without 30 mM KCl for 15 min before lysis (Syt7/CTFs interaction decreased by KCl)

## amyloid precursor protein, full length (from UniProt P12023 18-770)
[1]
  binding: binds

## synaptotagmin-7 (from UniProt Q9R0N7 1-403)
[2]
  binding: binds

## amyloid precursor protein, full length (from UniProt P08592 18-770)
[3]
  binding: binds
